Test results published in patent publication US20080032927A1 (published 2008).
Results are given in words; binding and its absence hold for the method and conditions named. Binding seen in cells or lysates may run through a third protein. Some results given as binding are weak or reduced against the parent protein; the word gives no strength. For some of these results: Where a sequence is shown, tags or fusion partners need not be part of it.

Amino acid sequences for entries named in this document (tags omitted).
UniProt Q9NQB0: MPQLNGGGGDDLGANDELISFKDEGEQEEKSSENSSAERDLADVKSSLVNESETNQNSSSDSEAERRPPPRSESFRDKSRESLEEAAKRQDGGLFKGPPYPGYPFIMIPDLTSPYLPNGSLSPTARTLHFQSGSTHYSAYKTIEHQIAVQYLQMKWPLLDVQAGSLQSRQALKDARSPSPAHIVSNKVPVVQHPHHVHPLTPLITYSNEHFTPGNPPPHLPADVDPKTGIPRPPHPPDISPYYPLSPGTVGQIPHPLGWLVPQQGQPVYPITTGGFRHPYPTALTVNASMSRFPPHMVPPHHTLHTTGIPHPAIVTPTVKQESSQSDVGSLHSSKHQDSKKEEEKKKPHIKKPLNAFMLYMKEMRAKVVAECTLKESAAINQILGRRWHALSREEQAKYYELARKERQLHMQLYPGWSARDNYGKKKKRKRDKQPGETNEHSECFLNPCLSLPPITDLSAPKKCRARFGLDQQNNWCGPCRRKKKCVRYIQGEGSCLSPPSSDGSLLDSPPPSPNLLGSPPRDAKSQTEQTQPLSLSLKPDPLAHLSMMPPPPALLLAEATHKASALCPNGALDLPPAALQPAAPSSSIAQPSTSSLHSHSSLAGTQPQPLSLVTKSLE

How the values were obtained:
TCF4 [1] = target: T1, TCF4 (UniProt Q9NQB0 1-619, limits assumed); assay: co-immunoprecipitation with anti-TCF4 beads
T1 construct: Endogenous protein of HCT116 cells; also called endogenous TCF4
Protocol: Co-immunoprecipitation-The affinity-protein G beads were prepared by mixing 20 μl of protein G plus-Agarose beads (Santa Cruz Biotechnology) with 1 μg of corresponding antibody. A total of 2×10⁶ of cells were lysed with 1× cells lysis buffer (Promega) containing 1× protease inhibitor reagent (Roche), incubated on ice for 30 minutes, sonicated briefly, and centrifuged at 12,000 g for 5 minutes at 4° C. The supernatants were further cleaned with 20 μl of untreated protein G plus-Agarose beads and 2 μg of pre-immune serum for 2 hours at 4° C. The supernatants were then mixed with 20 μl of prelabeled protein G plus-Agarose beads at 4° C. overnight. The beads were washed four times with PBS plus 0.2% NP40.
Xom binds to LEF1/TCF factors in vivo and in vitro-Binding of LEF1/TCFs to the promoter of TOPflash is required for the activation of the reporter construct; thus, the finding that expression of Xom activates TOPflash but not FOPflash raised the possibility that Xom activates the TOPflash reporter through interaction with LEF1/TCFs. This hypothesis was tested by determining whether Xom physically interacts with LEF1/TCFs. Co-immunoprecipitation experiments was carried out in HCT116 cells transiently transfected with mye-Xom. […] The in vivo association between Xom and TCF4 appears to be strong and could not be dissociated with 300 mM NaCl and 0.1% NP40. To determine the domain of Xom that mediates its interaction with LEF1/TCFs, serial deletion mutants of Xom were made and tested for their interactions with TCF4 in vivo. The proteins used were: wild type Xom (aa 1-326), XomND55 (aa. 56-326), XomND175 (aa. 176-326), XomCD145 (aa. 146-326), XomCD85 (aa. 86-326), and XomID110 (fusion of aa 1-130 and aa 241-326).

TCF4 [2] = target: T1, TCF4; assay: co-immunoprecipitation from HCT116 cells transfected with myc-Xom; association not dissociated with 300 mM NaCl and 0.1% NP40

| binding (TCF4 [1]) | binding (TCF4 [2]) | Binder |
| --- | --- | --- |
| binds | – | XomND175 (protein) RLRTAFTSDQISTLEKTFQKHRYLGASERQKLAAKLQLSEVQIKTWFQNRRMKYKREIQDGRPDSYHPAQFFGVYGYAQQPTPVFQHAVQHPYPGYNPLMETLPGTMPYTMHPPAMDSMTPFNSQPFQMLYLPQQHLGQPLTYQEERPFVR |
| – | binds | myc-Xom (protein, not shown: small tags and cut ends) MTKAFSSVEWLAQSSRRSHREQPSKVDQRYSPYPSPSLPSWNSDVSPSSWNSQLSPDPDSAQVSPCPASAQVSPYSSDSEISLYSHEEEASFYGMDLNTSSSPGDNGLLHSEMVSVPDNIPRASSDEDAAKSAYSTSTDSGYESETSCSSSTAPEGDAISLSPNDTSDEEGKMGRRLRTAFTSDQISTLEKTFQKHRYLGASERQKLAAKLQLSEVQIKTWFQNRRMKYKREIQDGRPDSYHPAQFFGVYGYAQQPTPVFQHAVQHPYPGYNPLMETLPGTMPYTMHPPAMDSMTPFNSQPFQMLYLPQQHLGQPLTYQEERPFVRY |

The remaining lines, values behind:

| Binder | binding (TCF4 [1]) | binding (TCF4 [2]) |
| --- | --- | --- |
| XomND55 (protein) PDPDSAQVSPCPASAQVSPYSSDSEISLYSHEEEASFYGMDLNTSSSPGDNGLLHSEMVSVPDNIPRASSDEDAAKSAYSTSTDSGYESETSCSSSTAPEGDAISLSPNDTSDEEGKMGRRLRTAFTSDQISTLEKTFQKHRYLGASERQKLAAKLQLSEVQIKTWFQNRRMKYKREIQDGRPDSYHPAQFFGVYGYAQQPTPVFQHAVQHPYPGYNPLMETLPGTMPYTMHPPAMDSMTPFNSQPFQMLYLPQQHLGQPLTYQEERPFVR | binds | – |
| XomCD85 (protein) MTKAFSSVEWLAQSSRRSHREQPSKVDQRYSPYPSPSLPSWNSDVSPSSWNSQLSPDPDSAQVSPCPASAQVSPYSSDSEISLYSHEEEASFYGMDLNTSSSPGDNGLLHSEMVSVPDNIPRASSDEDAAKSAYSTSTDSGYESETSCSSSTAPEGDAISLSPNDTSDEEGKMGRRLRTAFTSDQISTLEKTFQKHRYLGASERQKLAAKLQLSEVQIKTWFQNRRMKYKREIQDGRPDSY | binds | – |
